This is one part of the list.
Columns and labels:
Assay in all cases: glycan array binding signal (z-score within array); higher = stronger binding
Conditions in all cases: glycan notation: IUPAC condensed, linker removed
[1] = molecular target: GlcNAc(b1-6)Gal(b1-4)GlcNAc
Procedure, shortened: (§1)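 From the Consortium for Functional Glycomics database, 3228 arrays were curated, keeping only those whose protein sequence was available. Binding is given as a within-array Z-score averaged across arrays sharing a protein sequence and across linkers. Negative Z-scores can be read as non-binding.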

GlcNAc(b1-6)GalNAc = molecular target: GlcNAc(b1-6)GalNAc
Procedure, shortened: as §1

GlcNAc3Prop(b1-4)GlcNAc = molecular target: GlcNAc3Prop(b1-4)GlcNAc
Procedure, shortened: as §1

[2] = molecular target: GlcNAc6S(b1-3)Gal(b1-4)GlcNAc
Procedure, shortened: as §1

Kdn(a2-3)Gal(b1-3)GalNAc = molecular target: Kdn(a2-3)Gal(b1-3)GalNAc
Procedure, shortened: as §1

Kdn(a2-3)Gal(b1-3)GlcNAc = molecular target: Kdn(a2-3)Gal(b1-3)GlcNAc
Procedure, shortened: as §1

Kdn(a2-3)Gal(b1-4)Glc = molecular target: Kdn(a2-3)Gal(b1-4)Glc
Procedure, shortened: as §1

Kdn(a2-3)Gal(b1-4)GlcNAc = molecular target: Kdn(a2-3)Gal(b1-4)GlcNAc
Procedure, shortened: as §1

[3] = molecular target: Kdn(a2-3)Gal(b1-4)[Fuc(a1-3)]GlcNAc
Procedure, shortened: as §1

Kdn(a2-6)Gal(b1-4)GlcNAc = molecular target: Kdn(a2-6)Gal(b1-4)GlcNAc
Procedure, shortened: as §1

[4] = molecular target: Man(a1-2)Man(a1-2)Man(a1-3)Man
Procedure, shortened: as §1

[5] = molecular target: Man(a1-2)Man(a1-2)Man(a1-6)[Man(a1-3)]Man
Procedure, shortened: as §1

Man(a1-2)Man(a1-3)Man = molecular target: Man(a1-2)Man(a1-3)Man
Procedure, shortened: as §1

[6] = molecular target: Man(a1-2)Man(a1-3)[Man(a1-2)Man(a1-6)]Man
Procedure, shortened: as §1

[7] = molecular target: Man(a1-2)Man(a1-3)[Man(a1-2)Man(a1-6)]Man(a1-6)[Man(a1-2)Man(a1-2)Man(a1-3)]Man
Procedure, shortened: as §1

[8] = molecular target: Man(a1-2)Man(a1-3)[Man(a1-2)Man(a1-6)]Man(a1-6)[Man(a1-2)Man(a1-2)Man(a1-3)]Man(b1-4)GlcNAc(b1-4)GlcNAc
Procedure, shortened: as §1

[9] = molecular target: Man(a1-2)Man(a1-3)[Man(a1-6)]Man(a1-6)[Man(a1-2)Man(a1-3)]Man(b1-4)GlcNAc(b1-4)GlcNAc
Procedure, shortened: as §1

[10] = molecular target: Man(a1-2)Man(a1-6)[Man(a1-3)]Man(a1-6)[Man(a1-2)Man(a1-2)Man(a1-3)]Man
Procedure, shortened: as §1

[11] = molecular target: Man(a1-2)Man(a1-6)[Man(a1-3)]Man(a1-6)[Man(a1-2)Man(a1-2)Man(a1-3)]Man(b1-4)GlcNAc(b1-4)GlcNAc
Procedure, shortened: as §1

Man(a1-3)[Man(a1-6)]Man = molecular target: Man(a1-3)[Man(a1-6)]Man
Procedure, shortened: as §1

[12] = molecular target: Man(a1-3)[Man(a1-6)]Man(a1-6)[Man(a1-2)Man(a1-3)]Man(b1-4)GlcNAc(b1-4)GlcNAc
Procedure, shortened: as §1

[13] = molecular target: Man(a1-3)[Man(a1-6)]Man(a1-6)[Man(a1-3)]Man
Procedure, shortened: as §1

[14] = molecular target: Man(a1-3)[Man(a1-6)]Man(a1-6)[Man(a1-3)]Man(b1-4)GlcNAc(b1-4)GlcNAc
Procedure, shortened: as §1

[15] = molecular target: Man(a1-3)[Man(a1-6)]Man(b1-4)GlcNAc(b1-4)GlcNAc
Procedure, shortened: as §1

Man(a1-6)Man = molecular target: Man(a1-6)Man
Procedure, shortened: as §1

Man(b1-4)GlcNAc = molecular target: Man(b1-4)GlcNAc
Procedure, shortened: as §1

Neu5Ac(a2-3)Gal = molecular target: Neu5Ac(a2-3)Gal
Procedure, shortened: as §1

[16] = molecular target: Neu5Ac(a2-3)Gal(b1-3)GalNAc
Procedure, shortened: as §1

[17] = molecular target: Neu5Ac(a2-3)Gal(b1-3)GalNAc(b1-3)Gal(a1-4)Gal(b1-4)Glc
Procedure, shortened: as §1

[18] = molecular target: Neu5Ac(a2-3)Gal(b1-3)GalNAc(b1-4)[Neu5Ac(a2-3)]Gal(b1-4)Glc
Procedure, shortened: as §1

[19] = molecular target: Neu5Ac(a2-3)Gal(b1-3)GalNAc(b1-4)[Neu5Ac(a2-8)Neu5Ac(a2-3)]Gal(b1-4)Glc
Procedure, shortened: as §1

[20] = molecular target: Neu5Ac(a2-3)Gal(b1-3)GalNAc6S
Procedure, shortened: as §1

[21] = molecular target: Neu5Ac(a2-3)Gal(b1-3)GlcNAc
Procedure, shortened: as §1

[22] = molecular target: Neu5Ac(a2-3)Gal(b1-3)GlcNAc(b1-2)Man(a1-3)[Neu5Ac(a2-3)Gal(b1-3)GlcNAc(b1-2)Man(a1-6)]Man(b1-4)GlcNAc(b1-4)GlcNAc
Procedure, shortened: as §1

[23] = molecular target: Neu5Ac(a2-3)Gal(b1-3)GlcNAc(b1-3)Gal(b1-3)GlcNAc
Procedure, shortened: as §1

[24] = molecular target: Neu5Ac(a2-3)Gal(b1-3)GlcNAc(b1-3)Gal(b1-4)GlcNAc
Procedure, shortened: as §1

[25] = molecular target: Neu5Ac(a2-3)Gal(b1-3)GlcNAc(b1-3)GalNAc
Procedure, shortened: as §1

[26] = molecular target: Neu5Ac(a2-3)Gal(b1-3)GlcNAc6S
Procedure, shortened: as §1

[27] = molecular target: Neu5Ac(a2-3)Gal(b1-3)[Fuc(a1-4)]GlcNAc
Procedure, shortened: as §1

[28] = molecular target: Neu5Ac(a2-3)Gal(b1-3)[Fuc(a1-4)]GlcNAc(b1-3)Gal(b1-3)[Fuc(a1-4)]GlcNAc
Procedure, shortened: as §1

[29] = molecular target: Neu5Ac(a2-3)Gal(b1-3)[Fuc(a1-4)]GlcNAc(b1-3)Gal(b1-4)[Fuc(a1-3)]GlcNAc
Procedure, shortened: as §1

[30] = molecular target: Neu5Ac(a2-3)Gal(b1-3)[Neu5Ac(a2-3)Gal(b1-4)]GlcNAc
Procedure, shortened: as §1

[31] = molecular target: Neu5Ac(a2-3)Gal(b1-3)[Neu5Ac(a2-6)]GalNAc
Procedure, shortened: as §1

Neu5Ac(a2-3)Gal(b1-4)Glc = molecular target: Neu5Ac(a2-3)Gal(b1-4)Glc
Procedure, shortened: as §1

[32] = molecular target: Neu5Ac(a2-3)Gal(b1-4)GlcNAc
Procedure, shortened: as §1

B1: pullulanase (Streptococcus pyogenes), Q8KLP1 (protein)
chain: MKKKVNQGSKRYQYLLKKWGIGFVIAATGTVMLGCIPSILTHQVAAKTIVGLARDEAQQGDGNAKSGDGFQSSSKEAKPVLDSSSANPASIAEHHLRMHFKTLPAGESLGSLGLWVWGDVDQPSKDWPNGAITMTKAKKDDYGYYLDVPLAAKHRQQVSYLINNKAGENLSKDQHIPLLTPKMNEVWIDENYHAHAYRPLKKGYLRINYHNQSGHYDNLAVWTFKDVKTPTTDWPNGLDLSHKGPYGAYVDVPLKEGANEIGFLILDKSKTGDAIKVQPKDYLFKELDNHTQVFVKDTDPKVYNNPYYIDQVSLKGAEQTTPNEIKAIFTTLDGLDEDAVKQNIKITDKAGKTVAIDELTLDKDKSVMTLKGDFKAQGAVYTVTFGEVSQVARQSWQLKDKLYAYDGELGATLAKDGSVDLALWSPSADSVKVVVYDKQDQTKVVGQADLTKSDKGVWRAHLTSDSVKGISDYTGYYYLYEITRGQEKVMVLDPYAKSLAAWNDATATDDIKTAKAAFIDPSKLGPTGLDFAKINNFKKREDAIIYEAHVRDFTSDKALEGKLTHPFGTFSAFVEQLDYLKDLGVTHVQLLPVLSYFYANELDKTRSTAYTSSDNNYNWGYDPQHYFALSGMYSANPNDPALRIAELKNLVNEIHKRGMGVIFDVVYNHTARTYLFEDLEPNYYHFMNADGTARESFGGGRLGTTHAMSRRILVDSITYLTREFKVDGFRFDMMGDHDAAAIEQAFKAAKAINPNTIMIGEGWRTYQGDEGKKEIAADQDWMKATNTVGVFSDDIRNTLKSGFPNEGTAAFITGGAKNLEGLFKTIKAQPSNFEADAPGDVVQYIAAHDNLTLHDVIAKSINKDPKVAEEEIHKRIRLGNTMILTAQGTAFIHSGQEYGRTKQLLNPDYKTKVSDDKVPNKATLIDAVAQYPYFIHDSYDSSDAVNHFDWAKATDSIAHPISNQTKAYTQGLIALRRSTDAFTKATKAEVDRDVTLITQAGQDGIQQEDLIMGYQTVASNGDRYAVFVNADNKTRKVVLPQAYRYLLGAQVLADAEQVGVTAIAKPKGVQFTKEGLTIDGLTALVLKVSSKTANPSQQKSQTDNHQTKTPDGSKDLDKSLMTRPKRAKTNQKLPKTGEAPSKGLLAAGVALLLLAISLLMKRQKD
glycan array binding signal (z-score) [1]: -0.363
glycan array binding signal (z-score) (GlcNAc(b1-6)GalNAc): -0.087
glycan array binding signal (z-score) (GlcNAc3Prop(b1-4)GlcNAc): -1
glycan array binding signal (z-score) [2]: 1.42
glycan array binding signal (z-score) (Kdn(a2-3)Gal(b1-3)GalNAc): 1.42
glycan array binding signal (z-score) (Kdn(a2-3)Gal(b1-3)GlcNAc): -0.039
glycan array binding signal (z-score) (Kdn(a2-3)Gal(b1-4)Glc): -0.746
glycan array binding signal (z-score) (Kdn(a2-3)Gal(b1-4)GlcNAc): 0.846
glycan array binding signal (z-score) [3]: -0.816
glycan array binding signal (z-score) (Kdn(a2-6)Gal(b1-4)GlcNAc): -0.07
glycan array binding signal (z-score) [4]: 0.552
glycan array binding signal (z-score) [5]: 1
glycan array binding signal (z-score) (Man(a1-2)Man(a1-3)Man): -0.328
glycan array binding signal (z-score) [6]: 0.757
glycan array binding signal (z-score) [7]: 0.204
glycan array binding signal (z-score) [8]: 0.012
glycan array binding signal (z-score) [9]: 1.31
glycan array binding signal (z-score) [10]: 0.731
glycan array binding signal (z-score) [11]: 0.634
glycan array binding signal (z-score) (Man(a1-3)[Man(a1-6)]Man): -0.085
glycan array binding signal (z-score) [12]: 0.619
glycan array binding signal (z-score) [13]: 0.007
glycan array binding signal (z-score) [14]: -0.36
glycan array binding signal (z-score) [15]: 0.448
glycan array binding signal (z-score) (Man(a1-6)Man): 0.668
glycan array binding signal (z-score) (Man(b1-4)GlcNAc): 0.398
glycan array binding signal (z-score) (Neu5Ac(a2-3)Gal): -0.08
glycan array binding signal (z-score) [16]: -0.607
glycan array binding signal (z-score) [17]: 0.881
glycan array binding signal (z-score) [18]: -0.001
glycan array binding signal (z-score) [19]: -0.001
glycan array binding signal (z-score) [20]: -1.23
glycan array binding signal (z-score) [21]: 0.591
glycan array binding signal (z-score) [22]: -1.61
glycan array binding signal (z-score) [23]: -0.475
glycan array binding signal (z-score) [24]: 0.535
glycan array binding signal (z-score) [25]: -0.232
glycan array binding signal (z-score) [26]: 0.267
glycan array binding signal (z-score) [27]: -0.868
glycan array binding signal (z-score) [28]: 1.53
glycan array binding signal (z-score) [29]: -0.409
glycan array binding signal (z-score) [30]: -0.553
glycan array binding signal (z-score) [31]: -0.262
glycan array binding signal (z-score) (Neu5Ac(a2-3)Gal(b1-4)Glc): -1.33
glycan array binding signal (z-score) [32]: -0.571

Reference: the supplement of paper PMC8728848
